# Values quoted from earlier work as cited in patent US7534455B2, “Herbal composition PHY906 and its use in chemotherapy” (Yale University, priority 2000, dated 2009).
# Some results were stated once for a whole list of compounds, not compound by compound.
# System: hepatocellular carcinoma
# Conditions: hepatocellular carcinoma / liver cancer, systemic chemotherapy; cited from earlier work
row,SMILES,Response rate
1,"O=c1[nH]cc(F)c(=O)[nH]1 [FU, 5-fluorouracil]",10 to 20%
2,"COc1cccc2c1C(=O)c1c(O)c3c(c(O)c1C2=O)C[C@@](O)(C(=O)CO)C[C@@H]3O[C@H]1C[C@H](N)[C@H](O)[C@H](C)O1 [doxorubicin, Doxorubicin]",10 to 20%
